# Results from one PubChem assay

From PubChem BioAssay record AID1159506 (NCATS, 2015).

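Luminescence from an EWS-FLI1 target-promoter (NR0B1) reporter, set against a CMV-promoter reporter, two days after silencing single genes in TC32 Ewing sarcoma cells.
Each siRNA was applied at 20 nM.
A z-score of the log NR0B1-over-CMV signal, less the median of siRNAs with the same seed; more negative means a stronger specific loss of the NR0B1 reporter.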

This is part of the screen; most of the strongest results are not listed here.
Sequences are the guide (antisense) strand, without overhang.

Sequence,gene,seed-corrected z-score
AAUCUCACAAGAGUUGUUC,STC2,-0.02035
ACCUUGACCAUAAACUCUC,SGPL1,-0.7322
ACAGCAACAAUAGAGAUGA,PSEN1,-0.06575
UUUGAUUUUACAACCUUGC,MEX3B,0.6266
UAUCUUCUCAAGACAUUUU,EIF2S2,-1.443
AUUAGCAUUAAUGUAGGUG,PTPRR,-0.1579
UGUUGGUAAUACAUGAUCU,RGS9,0.3928
UAUUGUUCCAACCAACCUC,TSPAN13,0.7628
UCGGAUUUCAGGUCUCUGU,PINK1,-0.03758
UGCAGUAUUUUGUUGUACC,CNOT4,0.06395
UAAUCCUCUCCUCCGUUCG,ABHD15,-0.538
UUCAGUAACACGGUAGGUG,PLAC1,1.381
UCCCAAUUUCGUACUAUGC,ACTR2,-0.1419
UUUCCAUUUACCACCACCU,LGALS4,-0.5815
UCCUUGGUCGUUGAUCUCC,EVPLL,-0.09055
UAGGGUAUUCGUUCUAUCG,ARID5B,0.2337
UCGGAUACUAUCAUUGAUC,ERMP1,-0.8546
AUAGUUUGAUGCAUGAUUU,CCDC42,-0.2105
UACGGUUGACAUAUGGAGC,PLOD2,0.3837
UAAAGAAGUGGUUUGCUCC,SYS1,1.369
UACUUUCCAGUAUAAUCCG,TMEM132D,-0.7114
AAUCAUUUUCGUCCUCUGC,SSX1,-1.122
ACAACUCCUAGGUUGGUGG,GRM5,0.00611
AUAAGUGUUUCUAUAGCCG,DDX53,0.2135
AUUCGGUUCAGACUUCUAG,NAV3,0.5288
UGGAAUUACACGUAAACCU,ZSCAN5A,-0.4441
UCAUUGUGACGAUAUAGCC,ABCA4,0.3962
UUCACGAUAGCUGUGAGGC,ANXA1,0.3292
UCCUUCUCAAUAUAGUCGC,CCM2,-0.1842
AUUUGGUACACCACAAACU,SNX20,0.6415
UUGAUAUCGAUGUUAAUGG,GDPD1,-0.2538
AAUGCUUGCACAUCCAUUG,PRKAR2B,0.1588
UAUAAUACGAAGGAGGAUU,LITAF,-1.229
UCACUGACUCCAUACCACC,SLC6A3,-0.4175
UAUUGCAUUGUCCUCCUGC,TTC19,0.5294
AAUGCAAUCACCAUAAACC,ASPH,-0.3363
AAUGGUCUUAAUGUUCCGG,RPS5,0.1
UCGUCUGCUACUAUCCAGC,LY75,-0.1429
UUUUAUAUUCUACUGUCUC,ARL17B,0.01889
UCUCGAUCUAUAACCAGGC,PRKG2,0.3487
UUCGUAGGAAGGUCUGAAC,ITGA10,-0.6417
UAAAUAAGAACAAGCUCGC,OR5B3,-0.6698
AUGAGUAACGGGUACUUGG,ARHGEF2,-0.7571
UUGGAAUCCGGAACCAGAC,HEBP1,1.783
UUUUCGAAGAGGUAGAGGC,CLEC11A,0.2214

For reference, 3 entries once more:

Sequence	gene	seed-corrected z-score
UCUCGAUCUAUAACCAGGC	PRKG2	0.3487
AUUUGGUACACCACAAACU	SNX20	0.6415
AUAGUUUGAUGCAUGAUUU	CCDC42	-0.2105